PubChem BioAssay AID743121 | NCATS, 2013
Purpose: 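Genes whose silencing strengthens cell killing by camptothecin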 (primary screen). System: MDA-MB-231 cells, a human breast cancer line. Reagent: single siRNA against human genes, 20 nM siRNA (0.8 pmol per well). Timing: 120 h (drug added 48 h after transfection, read 72 h later). Challenge: camptothecin 20 nM (about EC30) for 72 h; vehicle 0.1% DMSO in parallel plates. Detection: 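Cell viability by ATP luminescence (CellTiter-Glo) as % of non-targeting siRNA wells, and the log2 ratio of viability without drug over viability with camptothecin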. Direction: log2 vehicle/camptothecin viability: higher = stronger sensitisation to camptothecin. Active means: 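Active genes have an RSA gene-level p-value below 0.001, computed from the ratios of their separate siRNAs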.
The deposit covers about 26,000 reagents; this is a random part of them. 167 of all reagents (0.63%) were called active. 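Calls are per gene from RSA p-values that are not deposited; an individual active-marked siRNA can sensitise only weakly.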 Reagents against one gene are numbered here. Not all columns of the deposit are shown.

{"gene knocked down":"PMS2P1","reagent no.":1,"log2 vehicle/camptothecin viability":-0.528,"activity call":"inactive"}
{"gene knocked down":"GPS2 (G protein pathway suppressor 2)","reagent no.":1,"log2 vehicle/camptothecin viability":-0.492,"activity call":"inactive"}
{"gene knocked down":"GPS2 (G protein pathway suppressor 2)","reagent no.":2,"log2 vehicle/camptothecin viability":-0.168,"activity call":"inactive"}
{"gene knocked down":"GPS2 (G protein pathway suppressor 2)","reagent no.":3,"log2 vehicle/camptothecin viability":-0.0447,"activity call":"inactive"}
{"gene knocked down":"GPS2 (G protein pathway suppressor 2)","reagent no.":4,"log2 vehicle/camptothecin viability":-0.183,"activity call":"inactive"}
{"gene knocked down":"CD63 (CD63 molecule)","reagent no.":1,"log2 vehicle/camptothecin viability":-0.189,"activity call":"inactive"}
{"gene knocked down":"CD63 (CD63 molecule)","reagent no.":2,"log2 vehicle/camptothecin viability":-0.356,"activity call":"inactive"}
{"gene knocked down":"CD63 (CD63 molecule)","reagent no.":3,"log2 vehicle/camptothecin viability":-0.405,"activity call":"inactive"}
{"gene knocked down":"CD63 (CD63 molecule)","reagent no.":4,"log2 vehicle/camptothecin viability":0.132,"activity call":"inactive"}
{"gene knocked down":"TCF20 (transcription factor 20)","reagent no.":1,"log2 vehicle/camptothecin viability":-0.234,"activity call":"inactive"}
{"gene knocked down":"TCF20 (transcription factor 20)","reagent no.":2,"log2 vehicle/camptothecin viability":-0.082,"activity call":"inactive"}
{"gene knocked down":"TCF20 (transcription factor 20)","reagent no.":3,"log2 vehicle/camptothecin viability":0.14,"activity call":"inactive"}
{"gene knocked down":"TCF20 (transcription factor 20)","reagent no.":4,"log2 vehicle/camptothecin viability":-0.275,"activity call":"inactive"}
{"gene knocked down":"RGS11 (regulator of G protein signaling 11)","reagent no.":1,"log2 vehicle/camptothecin viability":-0.394,"activity call":"inactive"}
{"gene knocked down":"RGS11 (regulator of G protein signaling 11)","reagent no.":2,"log2 vehicle/camptothecin viability":0.199,"activity call":"inactive"}
{"gene knocked down":"RGS11 (regulator of G protein signaling 11)","reagent no.":3,"log2 vehicle/camptothecin viability":-0.506,"activity call":"inactive"}
{"gene knocked down":"BCAM (basal cell adhesion molecule (Lutheran blood group))","reagent no.":1,"log2 vehicle/camptothecin viability":-0.272,"activity call":"inactive"}
{"gene knocked down":"BCAM (basal cell adhesion molecule (Lutheran blood group))","reagent no.":2,"log2 vehicle/camptothecin viability":-0.345,"activity call":"inactive"}
{"gene knocked down":"BCAM (basal cell adhesion molecule (Lutheran blood group))","reagent no.":3,"log2 vehicle/camptothecin viability":-0.0524,"activity call":"inactive"}
{"gene knocked down":"GANAB (glucosidase II alpha subunit)","reagent no.":1,"log2 vehicle/camptothecin viability":-0.233,"activity call":"inactive"}
{"gene knocked down":"GANAB (glucosidase II alpha subunit)","reagent no.":2,"log2 vehicle/camptothecin viability":0.476,"activity call":"inactive"}
{"gene knocked down":"GANAB (glucosidase II alpha subunit)","reagent no.":3,"log2 vehicle/camptothecin viability":-0.319,"activity call":"inactive"}
{"gene knocked down":"GANAB (glucosidase II alpha subunit)","reagent no.":4,"log2 vehicle/camptothecin viability":-0.177,"activity call":"inactive"}
{"gene knocked down":"RPA1 (replication protein A1)","reagent no.":1,"log2 vehicle/camptothecin viability":-0.0306,"activity call":"inactive"}
{"gene knocked down":"RPA1 (replication protein A1)","reagent no.":2,"log2 vehicle/camptothecin viability":-0.278,"activity call":"inactive"}
{"gene knocked down":"RPA1 (replication protein A1)","reagent no.":3,"log2 vehicle/camptothecin viability":0.0315,"activity call":"inactive"}
{"gene knocked down":"RPA1 (replication protein A1)","reagent no.":4,"log2 vehicle/camptothecin viability":0.0785,"activity call":"inactive"}
{"gene knocked down":"GPR151 (G protein-coupled receptor 151)","reagent no.":1,"log2 vehicle/camptothecin viability":-0.138,"activity call":"inactive"}
{"gene knocked down":"GPR151 (G protein-coupled receptor 151)","reagent no.":2,"log2 vehicle/camptothecin viability":-0.0739,"activity call":"inactive"}
{"gene knocked down":"GPR151 (G protein-coupled receptor 151)","reagent no.":3,"log2 vehicle/camptothecin viability":-0.346,"activity call":"inactive"}
{"gene knocked down":"GPR151 (G protein-coupled receptor 151)","reagent no.":4,"log2 vehicle/camptothecin viability":0.096,"activity call":"inactive"}
{"gene knocked down":"CD2 (CD2 molecule)","reagent no.":1,"log2 vehicle/camptothecin viability":-0.102,"activity call":"inactive"}
{"gene knocked down":"CD2 (CD2 molecule)","reagent no.":2,"log2 vehicle/camptothecin viability":-0.483,"activity call":"inactive"}
{"gene knocked down":"CD2 (CD2 molecule)","reagent no.":3,"log2 vehicle/camptothecin viability":-0.359,"activity call":"inactive"}
{"gene knocked down":"CD2 (CD2 molecule)","reagent no.":4,"log2 vehicle/camptothecin viability":-0.485,"activity call":"inactive"}

Records listed so far whose target name starts with T or t (4):
{"gene knocked down":"TCF20 (transcription factor 20)","reagent no.":1,"log2 vehicle/camptothecin viability":-0.234,"activity call":"inactive"}
{"gene knocked down":"TCF20 (transcription factor 20)","reagent no.":2,"log2 vehicle/camptothecin viability":-0.082,"activity call":"inactive"}
{"gene knocked down":"TCF20 (transcription factor 20)","reagent no.":3,"log2 vehicle/camptothecin viability":0.14,"activity call":"inactive"}
{"gene knocked down":"TCF20 (transcription factor 20)","reagent no.":4,"log2 vehicle/camptothecin viability":-0.275,"activity call":"inactive"}
